The values that follow come from PubChem BioAssay AID2685 (National Center for Advancing Translational Sciences (NCATS), 2010).

A short description of this test: qHTS Assay for Lipid Storage Modulators in Drosophila S3 Cells.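 As to cell number change: cells counted by Cell Tracker Red CMTPX staining in the red channel.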 As to conditions: BODIPY lipid droplet fluorescence, 18-24 h; for cell number change: measured here: cell count max response, cells fed with added oleic acid. The gist of the method:
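Drosophila S3 cells loaded with oleic acid (400 uM, as added) and compounds at several concentrations; lipid droplets imaged by 488-nm laser-scanning cytometry, 500–530 nm intensity and object ratio to cell channel. Percent activity normalized to 20 uM Triacsin C.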
In general terms: qHTS replaces the single test concentration by a dilution series.

Setting [1] is: measured here: cell number channel AC50, cells fed with added oleic acid.
Setting [2] is: measured here: lipid fluorescence (Fed channel) AC50, cells fed with added oleic acid.

A word on the AC50: it is the midpoint of the concentration-response curve, whichever way the signal moves. Lower therefore signals activity at low concentration.

Some of the results follow. The main result of the screen is listed elsewhere. These columns were measured beside it and carry no call. Most of these compounds were active or inconclusive in the main read-out, so they are no random draw. Potencies come from curve fits of mixed quality, noted in brackets.

Take `O=C(COc1ccccc1F)Nc1cc(S(=O)(=O)Nc2cccc(Cl)c2)ccc1O`: the cell number change is -10.4%. In the case of `O=C(NC1CCCCC1)C(c1ccc2ncccc2c1)N(Cc1ccc(F)cc1)C(=O)c1cccs1` (configuration not stated), the cell number change turned out to be 144%. Moreover, the AC50 under setting [1] was 29.1 µM [rising, single point]. With `CC(=O)N1CCN(S(=O)(=O)c2cccc(C(=O)Nc3ccccc3N3CCCC3)c2)CC1`, the cell number change was -22.8%. For the same compound, under setting [2], the AC50 was 0.82 µM [falling, single point]. As to `CC(C)CNC(=O)NC1(C(F)(F)F)Oc2ccccc2O1`, under setting [2], the AC50 was 0.58 µM [falling, full curve].

Take `CCOc1ccc(CC(=O)N/N=C/c2cccnc2)cc1OCC`: the cell number change was found to be 18.8%. `C/C(CCC1CC(C)OC1=O)=N\NC(N)=O` (configuration not stated): the cell number change worked out at 15.6%. Moreover, the AC50 under setting [1] was 2.59 µM [rising, partial curve]. For the same compound, the AC50 under setting [2] was 3.26 µM [rising, partial curve]. For the compound `C/C(=N\NC(=O)c1nc(C)cc(C)n1)c1ccccc1`, the cell number change is 45.4%. In addition, under setting [1], the AC50 is 1.64 µM [rising, full curve, poor fit]. For the same compound, under setting [2], the AC50 is 1.3 µM [rising, partial curve]. Turning to `O=[N+]([O-])c1ccc(-c2csc(Nc3ccccc3)[n+]2Cc2ccccc2)cc1`, under setting [2], the AC50 was 16.4 µM [falling, partial curve].

Consider `CC(=O)Nc1ccc(C(=O)NNC(=O)CCc2ccccc2)cc1`, for which the cell number change is 15.8%. Moreover, the AC50 under setting [2] is 18.4 µM [rising, single point]. In the case of `CN(Cc1ccccc1)C(=O)N[C@@H](Cc1ccccc1)C(=O)O`, the cell number change amounted to 1.61%. Take `Cc1n[nH]c(C)c1S(=O)(=O)N1CCCC(C(=O)Nc2ccc3c(c2)OCCO3)C1` (configuration not stated): the AC50 under setting [1] was 3.66 µM [falling, partial curve, poor fit] and the AC50 under setting [2] is 3.66 µM [falling, partial curve]. `CCCCOc1ccc(S(=O)(=O)n2c(C)nc3ccccc32)cc1`: the cell number change is 143%. Besides, under setting [2], the AC50 was 18.4 µM [rising, single point]. `CCC(C)(C)NC(=O)C(c1cccc(OC)c1OC)N(CCC(C)C)C(=O)CCC(=O)Nc1cc(C)on1` (configuration not stated): the cell number change is -23.5%. On to `Cc1cc(C)cc(-n2nnnc2SCC(=O)Nc2nc(-c3ccc(Cl)cc3)cs2)c1`, for which the cell number change is 45.2%. `CCCn1cc(CN2CCC(n3nccc3NC(=O)c3ccc4c(c3)OCO4)CC2)c(C)n1`: the cell number change was -8.26%. The AC50 under setting [2] is 23.1 µM [rising, partial curve]. Regarding `COc1ccccc1NC(=O)COc1ccc(-c2nn(C)c(=O)c3ccccc23)cc1`, the cell number change is -6.41%. The AC50 under setting [2] was 13 µM [rising, partial curve]. Turning to `O=C(NNS(=O)(=O)c1ccc(Cl)cc1)c1sccc1-n1cccc1`, the cell number change is 15.8%. Besides, under setting [2], the AC50 is 0.58 µM [rising, single point].

`CC(C)C(=O)N1CCN(CCN2C(=O)c3cccc4cccc(c34)C2=O)CC1`: the cell number change was -9.72%. For `COC(=O)c1cc(C)sc1NC(=O)C1CC(=O)NN1Cc1ccccc1` (configuration not stated), the cell number change was -28.1%. Under setting [1], the AC50 was 2.31 µM [falling, full curve, poor fit]. Moreover, under setting [2], the AC50 is 1.46 µM [falling, full curve]. With `CCCn1c(=O)c2c(nc3n2CCCN3Cc2ccccc2)n(C)c1=O`, the cell number change is -30.6%. Moreover, under setting [1], the AC50 was 0.0184 µM [falling, full curve, poor fit]. On to `CC1(C)Cc2c(sc(NC(=O)C(=O)N3CCN(CCO)CC3)c2C(N)=O)CO1`, for which the AC50 under setting [2] was 29.1 µM [rising, single point]. For `O=C(CNc1cccc(Cl)c1)c1ccc(Br)cc1`, the cell number change came out at 24.7%. For the same compound, the AC50 under setting [2] is 20.6 µM [rising, partial curve]. On to `Cc1cc(OCC(=O)NNC(=O)c2cccc(F)c2)ccc1Cl`, for which the cell number change was -37.9%. In addition, the concentration at half-maximal activity (AC50) under setting [1] was 29.1 µM [falling, single point]. Further, under setting [2], the half-maximal activity concentration (AC50) was 25.9 µM [falling, single point].

As for `Cc1cc(NS(=O)(=O)c2ccc(NC(=O)/C=C/c3ccccc3Cl)cc2)no1`, the cell number change is -1.51%. Under setting [2], the AC50 is 1.46 µM [rising, full curve]. For the compound `CCC12CN3CCN(CC(C3)/C1=N\NC(=O)c1ccc(F)cc1)C2`, the cell number change stood at 33.1%. Besides, under setting [1], the AC50 was 29.1 µM [rising, single point]. For the same compound, the AC50 under setting [2] was 25.9 µM [rising, single point]. Regarding `O=C(c1ccc2c(c1)OCO2)N1CCN(S(=O)(=O)c2ccc(Cl)cc2)CC1`, the cell number change came to 5.22%.

Take `CCN(CC)c1ccc(/C=C/C(=O)C2C(=O)C=C(C)OC2=O)cc1` (configuration not stated): the cell number change was -102%. As for `O=C1CC(c2ccc(F)cc2)Sc2ccccc2N1` (configuration not stated), the cell number change was -39.6%. Moreover, under setting [1], the AC50 is 25.9 µM [falling, single point]. The AC50 under setting [2] is 16.4 µM [falling, single point].

As for `N#CCOC(=O)/C=C/c1ccc2c(c1)OCO2`, the cell number change was 71.4%. The AC50 under setting [1] was 14.6 µM [rising, partial curve]. As for `CN(C)c1ccc(/C=N/N2C(=O)c3ccccc3C2=O)cc1`, the cell number change was determined as 10%. Under setting [2], the AC50 is 29.1 µM [rising, single point]. For the compound `O=C(NNc1nc(Nc2ccccc2)nc(N2CCOCC2)n1)Nc1ccc(Cl)cc1`, the cell number change was -28.2%. In the case of `O=C(/C=C/C=C/c1ccccc1)CC1(O)C(=O)N(CCc2ccccc2)c2ccccc21` (configuration not stated), the cell number change was 17%. Also, the AC50 under setting [1] is 2.59 µM [rising, partial curve, poor fit]. Regarding `COc1ccc(OCc2cc(C(=O)NCCN3CCCc4ccccc43)no2)c(Cl)c1`, the cell number change is 3.52%. In addition, the AC50 under setting [2] was 29.1 µM [falling, single point].

Turning to `OCC1(Cc2cccc(C(F)(F)F)c2)CCN(Cc2cc(F)cc(F)c2)CC1`, the cell number change is -22.4%. Further, the AC50 under setting [2] was 32.6 µM [falling, single point]. For the compound `O=S(=O)(Nc1ccccc1O)c1ccc(-c2ccccc2)cc1`, the cell number change was -42.4%. Under setting [1], the AC50 is 35.5 µM [falling, single point]. Moreover, under setting [2], the AC50 is 15.8 µM [falling, single point]. For `COc1ccc(CCNC(=S)NC2CCN(Cc3ccccc3)CC2)cc1OC`, the cell number change was -30.1%. For the same compound, under setting [1], the AC50 is 29.1 µM [falling, single point]. Moreover, under setting [2], the AC50 is 32.6 µM [falling, single point]. Turning to `COCCCn1c(C(=O)Nc2ccc3c(c2)OCO3)cc2c(=O)n3ccccc3nc21`, the cell number change was 18.3%. The AC50 under setting [2] was 4.11 µM [falling, single point]. Regarding `COc1ccc(/C=C/C(=O)c2sc(-c3ccccc3)nc2C)cc1`, the AC50 under setting [2] is 1.03 µM [rising, full curve]. For the compound `Cc1cc(C)c2c(N)c3ccccc3nc2n1`, the cell number change came out at 137%. In addition, the AC50 under setting [1] is 9.2 µM [rising, partial curve]. In addition, under setting [2], the concentration at half-maximal activity (AC50) was 18.4 µM [rising, partial curve]. Regarding `CCOC(=O)C1CCN(c2ncnc3c2cnn3-c2ccc(Cl)cc2)CC1`, the cell number change came out at 34.2%. The AC50 under setting [1] was 32.6 µM [rising, single point]. As to `COc1ccc(CC(=O)Nc2cc(=O)n(C)c(=O)n2C)cc1`, the cell number change stood at 32.2%. Also, the concentration at half-maximal activity (AC50) under setting [1] is 4.61 µM [rising, full curve, poor fit]. Moreover, under setting [2], the AC50 was 3.26 µM [rising, full curve]. Consider `O=C(COc1cccc2c1CCN(Cc1ccc(Br)cc1)C2=O)NCc1ccco1`, for which the cell number change was -27%. Besides, the AC50 under setting [2] is 11.6 µM [falling, partial curve, poor fit]. As to `CCOc1cc(N2CCOCC2)c(OCC)cc1NC(=O)c1ccc(NC(C)=O)cc1`, the cell number change is -22.8%. In addition, the AC50 under setting [2] was 29.1 µM [falling, single point]. Regarding `Cc1ccc(-c2nn(-c3ccccc3Cl)cc2C(=O)NCC2CCCO2)cc1` (configuration not stated), the cell number change is 22.8%. Further, the AC50 under setting [2] is 2.31 µM [rising, single point]. On to `Cc1cc2c(SCC(=O)N3CCN(c4ccccc4)CC3)ncnc2s1`, for which the AC50 under setting [2] is 3.66 µM [rising, single point]. Consider `COC(=O)c1ccc(N2C(=O)C3C4C=CC(CC4)C3C2=O)cc1` (configuration not stated), for which the cell number change is -15%. The AC50 under setting [2] was 0.0291 µM [rising, full curve, poor fit]. On to `COc1ccc(NC(=O)COC(=O)c2n[nH]c3ccccc23)c(OC)c1`, for which the cell number change is -2.38%. In addition, the AC50 under setting [2] was 6.51 µM [rising, partial curve, poor fit]. With `CCOCCCNS(=O)(=O)c1ccc(NC(=O)C2CC(=O)N(c3ccc(C)cc3)C2)cc1` (configuration not stated), the cell number change is 5.95%. In the case of `Cn1c(CCC(=O)Nc2ccc(N3CCOCC3)cc2)nc(=O)c2ccccc21`, the cell number change was found to be 17.1%. Regarding `O=C(CSc1ccc(C(F)(F)F)cc1[N+](=O)[O-])Nc1ccc2ccccc2c1`, the cell number change is -36%. The AC50 under setting [1] was 29.1 µM [falling, single point]. As for `CSCCC(NS(=O)(=O)c1ccccc1F)C(=O)N1CCCCCCC1` (configuration not stated), the cell number change was determined as 16.4%. Besides, the AC50 under setting [2] was 14.6 µM [rising, partial curve, poor fit]. For `COc1ccc(CCNC(=O)c2ccc3c(c2)OCCO3)cc1`, the cell number change amounted to 3%. As for `CCCCC(CC)c1nnc(NC(=O)c2cccs2)s1` (configuration not stated), the cell number change was -22.3%. Moreover, under setting [2], the AC50 was 16.4 µM [falling, single point]. Regarding `N#Cc1cc2c(nc1SCc1cccnc1)CCC2`, the cell number change stood at 5.5%.

With `CCOc1ccc(OCCOCCN2CCOCC2)cc1`, the cell number change was -32.2%. For the same compound, under setting [1], the AC50 was 3.66 µM [falling, full curve]. Also, under setting [2], the AC50 was 3.26 µM [falling, full curve]. As to `COCCCNC(=S)N1CCCN(c2nc3cc(C)ccc3cc2C#N)CC1`, the cell number change was -35.2%. Moreover, under setting [1], the AC50 was 29.1 µM [falling, single point]. In addition, the AC50 under setting [2] was 0.103 µM [falling, full curve, poor fit].

For the compound `CCOc1ccccc1OCC(=O)NCCc1ccc(S(N)(=O)=O)cc1`, the cell number change is 9.01%. Also, the AC50 under setting [2] was 20.6 µM [falling, partial curve]. As for `COc1ccc(CN(C)C2CCCCC2)c(C)c1C`, the cell number change stood at 7.94%. For the same compound, the AC50 under setting [2] is 0.164 µM [falling, full curve, poor fit]. As for `CCOc1ccc(NC(=O)[C@@H](NC(=O)c2ccccc2Br)C(C)C)cc1`, the cell number change stood at 108%. Further, under setting [2], the AC50 was 13 µM [rising, partial curve]. For `COc1ccc(NC(=O)C(=S)N2CCCC2)cc1`, the cell number change was -32%. Besides, the AC50 under setting [1] is 29.1 µM [falling, single point]. Moreover, under setting [2], the half-maximal activity concentration (AC50) is 29.1 µM [falling, single point].

For the compound `COc1ccc(CC(=O)NCc2nnc(SCC(=O)Nc3ccccc3)n2C)cc1`, the cell number change is 3.87%. In addition, the AC50 under setting [2] was 2.06 µM [falling, single point].
